The list shows a part of the results.
Compound: Cc1cc(ccc1-c1ccccc1)C(=O)N1CCCN(CC1)C(=O)CCl [compound 10]
Test: probe-labelled cysteine peptide fold change vs DMSO (competition) (log2 fold change); higher = less target engagement (more negative = stronger competition)
Conditions: THP-1, incubation time: 4 h
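Further: competitive profiling in live THP-1 cells: cysteine peptides tagged with an iodoacetamide desthiobiotin (IA-DTB) probe, intensity after compound treatment relative to DMSO-treated cells.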

Protein sequences, listed by entry. Tags and fused reporters are not part of them. Lines headed by an entry give the natural chain unless they say otherwise; changes in a name come on top.
UniProt P41227: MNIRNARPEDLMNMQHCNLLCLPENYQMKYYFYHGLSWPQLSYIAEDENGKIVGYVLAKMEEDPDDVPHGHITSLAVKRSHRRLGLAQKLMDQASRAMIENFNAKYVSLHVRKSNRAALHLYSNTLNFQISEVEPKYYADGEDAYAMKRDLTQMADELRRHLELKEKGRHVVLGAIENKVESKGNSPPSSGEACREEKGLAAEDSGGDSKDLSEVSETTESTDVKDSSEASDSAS
UniProt P42695: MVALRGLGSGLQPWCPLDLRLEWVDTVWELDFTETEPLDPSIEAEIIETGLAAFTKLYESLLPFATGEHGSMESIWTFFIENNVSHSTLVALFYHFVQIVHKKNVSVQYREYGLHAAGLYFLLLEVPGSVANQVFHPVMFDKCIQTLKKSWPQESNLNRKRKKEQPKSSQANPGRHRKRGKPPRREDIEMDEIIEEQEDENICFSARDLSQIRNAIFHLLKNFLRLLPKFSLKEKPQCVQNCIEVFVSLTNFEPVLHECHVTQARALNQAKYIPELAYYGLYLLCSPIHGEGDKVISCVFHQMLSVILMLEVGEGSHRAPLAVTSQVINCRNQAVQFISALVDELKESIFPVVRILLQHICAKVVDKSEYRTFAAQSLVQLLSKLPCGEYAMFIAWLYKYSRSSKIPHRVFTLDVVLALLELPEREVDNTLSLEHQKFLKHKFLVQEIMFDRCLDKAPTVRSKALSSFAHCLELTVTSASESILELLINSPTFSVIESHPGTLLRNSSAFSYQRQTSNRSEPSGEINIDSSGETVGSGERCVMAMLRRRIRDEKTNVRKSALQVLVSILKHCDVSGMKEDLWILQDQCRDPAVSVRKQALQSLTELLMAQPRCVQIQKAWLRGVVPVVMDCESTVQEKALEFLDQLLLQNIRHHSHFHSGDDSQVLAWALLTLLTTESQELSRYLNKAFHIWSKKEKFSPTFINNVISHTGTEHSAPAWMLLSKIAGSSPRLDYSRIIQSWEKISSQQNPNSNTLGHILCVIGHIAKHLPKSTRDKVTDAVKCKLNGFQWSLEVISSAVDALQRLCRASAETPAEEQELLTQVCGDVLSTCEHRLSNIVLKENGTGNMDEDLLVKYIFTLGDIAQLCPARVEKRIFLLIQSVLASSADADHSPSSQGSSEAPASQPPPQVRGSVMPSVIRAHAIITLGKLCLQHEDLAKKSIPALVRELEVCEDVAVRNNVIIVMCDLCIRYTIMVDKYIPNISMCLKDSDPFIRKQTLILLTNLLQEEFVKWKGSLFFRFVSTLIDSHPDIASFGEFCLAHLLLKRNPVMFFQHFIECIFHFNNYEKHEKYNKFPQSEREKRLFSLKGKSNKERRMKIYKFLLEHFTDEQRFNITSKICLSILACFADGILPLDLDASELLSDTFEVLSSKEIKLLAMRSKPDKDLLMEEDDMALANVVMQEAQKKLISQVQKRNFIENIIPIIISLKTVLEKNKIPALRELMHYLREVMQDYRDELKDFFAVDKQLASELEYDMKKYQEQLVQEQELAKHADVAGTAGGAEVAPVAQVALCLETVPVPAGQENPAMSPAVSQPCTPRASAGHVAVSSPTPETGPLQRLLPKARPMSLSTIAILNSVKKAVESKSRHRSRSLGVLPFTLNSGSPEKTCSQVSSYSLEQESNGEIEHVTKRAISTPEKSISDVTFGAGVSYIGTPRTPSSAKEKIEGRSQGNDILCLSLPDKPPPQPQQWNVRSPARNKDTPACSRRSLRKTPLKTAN
UniProt Q14CX7, whole entry, looked up: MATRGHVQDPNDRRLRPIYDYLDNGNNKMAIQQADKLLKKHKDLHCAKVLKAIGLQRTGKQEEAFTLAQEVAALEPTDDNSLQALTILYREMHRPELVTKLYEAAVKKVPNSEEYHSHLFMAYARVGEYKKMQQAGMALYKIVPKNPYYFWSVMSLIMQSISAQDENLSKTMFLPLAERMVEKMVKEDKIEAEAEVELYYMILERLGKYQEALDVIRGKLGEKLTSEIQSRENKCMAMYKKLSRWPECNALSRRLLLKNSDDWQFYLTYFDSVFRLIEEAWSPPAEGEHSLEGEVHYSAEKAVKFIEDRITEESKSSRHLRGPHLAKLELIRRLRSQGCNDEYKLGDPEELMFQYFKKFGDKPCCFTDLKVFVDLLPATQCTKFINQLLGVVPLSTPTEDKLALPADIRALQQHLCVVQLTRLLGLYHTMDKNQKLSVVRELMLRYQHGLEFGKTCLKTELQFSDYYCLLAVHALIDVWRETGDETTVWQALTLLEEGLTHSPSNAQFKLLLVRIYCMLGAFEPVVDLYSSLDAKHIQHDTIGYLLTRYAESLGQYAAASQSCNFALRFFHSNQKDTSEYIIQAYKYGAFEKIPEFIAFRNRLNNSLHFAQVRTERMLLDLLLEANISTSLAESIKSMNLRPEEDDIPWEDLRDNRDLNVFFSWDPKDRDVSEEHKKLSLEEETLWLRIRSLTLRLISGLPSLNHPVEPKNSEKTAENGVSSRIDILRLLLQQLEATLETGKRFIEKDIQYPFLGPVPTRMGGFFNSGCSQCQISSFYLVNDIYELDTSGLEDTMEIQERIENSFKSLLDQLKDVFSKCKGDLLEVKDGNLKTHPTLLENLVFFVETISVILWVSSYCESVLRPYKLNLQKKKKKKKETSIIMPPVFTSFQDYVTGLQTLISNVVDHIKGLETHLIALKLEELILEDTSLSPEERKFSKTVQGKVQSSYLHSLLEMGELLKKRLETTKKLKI
UniProt P19878: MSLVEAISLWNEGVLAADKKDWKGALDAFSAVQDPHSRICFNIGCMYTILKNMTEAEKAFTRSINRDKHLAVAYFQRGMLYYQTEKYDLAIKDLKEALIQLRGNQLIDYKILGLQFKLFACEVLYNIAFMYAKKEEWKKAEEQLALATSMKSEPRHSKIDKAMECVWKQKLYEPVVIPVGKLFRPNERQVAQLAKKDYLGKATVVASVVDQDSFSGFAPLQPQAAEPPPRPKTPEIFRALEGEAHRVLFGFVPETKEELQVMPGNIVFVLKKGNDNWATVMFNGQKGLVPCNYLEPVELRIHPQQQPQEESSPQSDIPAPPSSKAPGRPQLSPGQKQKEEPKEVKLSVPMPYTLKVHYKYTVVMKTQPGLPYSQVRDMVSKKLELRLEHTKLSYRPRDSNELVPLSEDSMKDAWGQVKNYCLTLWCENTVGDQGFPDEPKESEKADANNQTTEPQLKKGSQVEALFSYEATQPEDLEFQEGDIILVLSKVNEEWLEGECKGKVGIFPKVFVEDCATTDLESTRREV
UniProt Q9NR45: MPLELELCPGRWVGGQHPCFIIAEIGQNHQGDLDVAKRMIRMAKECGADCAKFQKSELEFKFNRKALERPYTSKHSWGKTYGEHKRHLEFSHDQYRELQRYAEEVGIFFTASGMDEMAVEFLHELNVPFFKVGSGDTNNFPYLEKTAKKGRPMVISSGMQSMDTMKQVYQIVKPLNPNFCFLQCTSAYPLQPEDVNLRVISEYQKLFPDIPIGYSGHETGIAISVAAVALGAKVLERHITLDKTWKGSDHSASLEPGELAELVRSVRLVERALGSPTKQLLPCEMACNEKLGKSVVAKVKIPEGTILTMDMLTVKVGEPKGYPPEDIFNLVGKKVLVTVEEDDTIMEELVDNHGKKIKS
UniProt Q13459: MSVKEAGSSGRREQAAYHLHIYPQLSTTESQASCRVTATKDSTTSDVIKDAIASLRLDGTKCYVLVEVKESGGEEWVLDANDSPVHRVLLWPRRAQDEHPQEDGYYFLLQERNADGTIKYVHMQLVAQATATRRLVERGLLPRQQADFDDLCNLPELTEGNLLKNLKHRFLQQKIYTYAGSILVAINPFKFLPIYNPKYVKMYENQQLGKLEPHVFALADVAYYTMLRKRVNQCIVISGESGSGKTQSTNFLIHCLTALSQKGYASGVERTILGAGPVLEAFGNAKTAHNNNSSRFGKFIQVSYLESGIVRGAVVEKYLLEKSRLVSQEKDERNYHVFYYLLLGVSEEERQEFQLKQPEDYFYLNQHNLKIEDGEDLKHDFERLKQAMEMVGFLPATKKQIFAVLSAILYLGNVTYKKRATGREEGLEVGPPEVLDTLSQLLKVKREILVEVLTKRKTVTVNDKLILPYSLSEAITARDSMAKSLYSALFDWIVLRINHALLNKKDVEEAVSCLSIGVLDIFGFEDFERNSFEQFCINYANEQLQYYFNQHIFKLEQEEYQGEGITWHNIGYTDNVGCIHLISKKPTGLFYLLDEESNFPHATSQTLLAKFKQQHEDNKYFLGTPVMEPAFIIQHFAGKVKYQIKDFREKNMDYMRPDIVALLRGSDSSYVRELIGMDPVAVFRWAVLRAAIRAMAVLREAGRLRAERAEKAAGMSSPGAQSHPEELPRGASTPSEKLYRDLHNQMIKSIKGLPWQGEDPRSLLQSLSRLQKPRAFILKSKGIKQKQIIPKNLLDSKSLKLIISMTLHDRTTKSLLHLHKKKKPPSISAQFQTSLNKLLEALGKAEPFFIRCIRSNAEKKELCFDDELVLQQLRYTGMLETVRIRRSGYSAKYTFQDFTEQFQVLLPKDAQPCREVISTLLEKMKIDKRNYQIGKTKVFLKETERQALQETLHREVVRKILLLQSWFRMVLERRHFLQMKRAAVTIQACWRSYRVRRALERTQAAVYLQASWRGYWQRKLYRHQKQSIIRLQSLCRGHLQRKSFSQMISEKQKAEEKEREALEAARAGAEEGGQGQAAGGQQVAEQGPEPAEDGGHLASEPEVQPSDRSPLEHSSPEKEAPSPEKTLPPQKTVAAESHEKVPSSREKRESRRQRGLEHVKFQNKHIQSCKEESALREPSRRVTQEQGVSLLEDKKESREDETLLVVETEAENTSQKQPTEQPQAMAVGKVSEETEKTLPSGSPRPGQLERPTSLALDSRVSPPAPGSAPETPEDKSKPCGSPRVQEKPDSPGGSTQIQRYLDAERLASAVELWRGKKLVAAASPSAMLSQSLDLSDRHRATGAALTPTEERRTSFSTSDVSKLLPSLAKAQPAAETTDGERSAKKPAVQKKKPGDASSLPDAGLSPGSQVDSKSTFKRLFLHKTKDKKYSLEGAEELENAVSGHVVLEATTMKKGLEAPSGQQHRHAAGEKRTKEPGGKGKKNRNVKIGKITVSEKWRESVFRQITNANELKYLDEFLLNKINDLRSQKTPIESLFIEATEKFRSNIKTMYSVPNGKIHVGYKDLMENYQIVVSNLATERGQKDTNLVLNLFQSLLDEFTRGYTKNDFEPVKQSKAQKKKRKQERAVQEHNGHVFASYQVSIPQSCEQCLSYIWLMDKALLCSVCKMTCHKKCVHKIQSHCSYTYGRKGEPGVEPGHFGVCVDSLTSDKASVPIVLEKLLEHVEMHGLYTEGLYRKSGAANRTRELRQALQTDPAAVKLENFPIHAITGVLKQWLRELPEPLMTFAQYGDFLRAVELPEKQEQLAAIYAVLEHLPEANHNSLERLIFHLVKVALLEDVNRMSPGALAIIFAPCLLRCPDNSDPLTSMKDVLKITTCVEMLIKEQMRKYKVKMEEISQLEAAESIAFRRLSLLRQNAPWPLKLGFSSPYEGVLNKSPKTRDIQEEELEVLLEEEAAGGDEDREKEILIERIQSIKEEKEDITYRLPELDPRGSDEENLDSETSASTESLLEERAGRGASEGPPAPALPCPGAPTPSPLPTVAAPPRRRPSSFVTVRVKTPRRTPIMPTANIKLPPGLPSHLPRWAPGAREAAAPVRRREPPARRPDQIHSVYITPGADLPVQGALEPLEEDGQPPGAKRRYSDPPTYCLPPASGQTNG
UniProt Q15003, whole entry, looked up: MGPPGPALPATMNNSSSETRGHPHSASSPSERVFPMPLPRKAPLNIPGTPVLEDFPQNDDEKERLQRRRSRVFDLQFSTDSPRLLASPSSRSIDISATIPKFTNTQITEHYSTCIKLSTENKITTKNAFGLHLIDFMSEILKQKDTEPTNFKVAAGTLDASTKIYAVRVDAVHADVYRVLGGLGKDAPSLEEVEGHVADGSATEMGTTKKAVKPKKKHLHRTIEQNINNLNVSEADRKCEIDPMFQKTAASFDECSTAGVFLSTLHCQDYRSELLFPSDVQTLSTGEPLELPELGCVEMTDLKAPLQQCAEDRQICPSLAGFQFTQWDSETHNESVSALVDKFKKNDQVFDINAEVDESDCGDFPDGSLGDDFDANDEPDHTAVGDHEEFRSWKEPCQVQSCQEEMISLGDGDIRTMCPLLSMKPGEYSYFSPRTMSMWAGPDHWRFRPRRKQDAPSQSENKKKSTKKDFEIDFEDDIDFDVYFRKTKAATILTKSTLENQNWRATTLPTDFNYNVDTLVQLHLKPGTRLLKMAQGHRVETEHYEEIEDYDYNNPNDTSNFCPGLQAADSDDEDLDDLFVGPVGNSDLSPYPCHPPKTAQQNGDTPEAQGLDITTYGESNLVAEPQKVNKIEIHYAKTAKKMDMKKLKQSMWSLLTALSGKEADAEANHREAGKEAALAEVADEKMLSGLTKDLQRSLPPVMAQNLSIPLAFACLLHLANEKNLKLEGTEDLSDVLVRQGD

Target	probe-labelled cysteine peptide fold change (10 µM)	probe-labelled cysteine peptide fold change (50 µM)
NAT10_Q9H0A0_194_FILSLASCK (UniProt Q9H0A0)	0.27	-0.0498
NBEAL2_Q6ZNJ1_1491_GQVFSVLTQLGASATLVRPPDCIK (UniProt Q6ZNJ1)	-0.137	0.129
MYO1C_O00159_802_CPENAFFLDHVR (UniProt O00159)	-0.271	0.0209
NCKAP1L_P55160_1032_DGYNNNIHCLTK (UniProt P55160)	-0.169	0.171
NCAPG2_Q86XI2_776_NRECLLSAPR (UniProt Q86XI2)	-0.149	-0.347
NAA10_P41227_17_NARPEDLMNMQHCNLLCLPENYQMK (UniProt P41227)	0.0322	-0.276
NAA15_Q9BXJ9_529_HFIEITDDQFDFHTYCMR (UniProt Q9BXJ9)	-0.0377	0.191
NCAPD3_P42695_824_ASAETPAEEQELLTQVCGDVLSTCEHR (UniProt P42695)	0.0779	0.0896
NARF_Q9UHQ1_192_VLGRPITAHLCTAK (UniProt Q9UHQ1)	-0.224	-0.402
MYO6_Q9UM54_790_RVNHWLTCSR (UniProt Q9UM54)	0.104	0.475
NAA25_Q14CX7_365_KFGDKPCCFTDLK (UniProt Q14CX7)	-0.174	-0.333
NAA25_Q14CX7_339_SQGCNDEYK (UniProt Q14CX7)	-0.177	-0.598
MYO1F_O00160_101+105_NMLIDCENQCVIISGESGAGK (UniProt O00160)	0.148	-0.228
MYO6_Q9UM54_1236_QMELHPDKPPILLVAGKDDMEMCELNLEETGLTR (UniProt Q9UM54)	-0.327	-0.191
NCF2_P19878_291_GLVPCNYLEPVELR (UniProt P19878)	0.107	-0.0202
MYO9A_B2RTY4_1226_ESSVDCLK (UniProt B2RTY4)	-0.335	-0.173
NCAPD2_Q15021_596_ESTGNMVTGQTVCK (UniProt Q15021)	-0.274	-0.688
NARS_O43776_438_LMTDTINEPILLCR (UniProt O43776)	0.0634	-0.0301
NAPRT_Q6XQN6_477+484_LCLQQGQLCEPLPSLAESR (UniProt Q6XQN6)	-0.0859	0.158
NCALD_P61601_38_DCPSGHLSMEEFK (UniProt P61601)	0.158	0.404
NCBP2_P52298_84_TACGFCFVEYYSR (UniProt P52298)	0.15	-0.00311

Look-ups from the list:
Value for NAA10_P41227_17_NARPEDLMNMQHCNLLCLPENYQMK (UniProt P41227) under probe-labelled cysteine peptide fold change (50 µM): -0.276
Value for MYO9A_B2RTY4_1226_ESSVDCLK (UniProt B2RTY4) under probe-labelled cysteine peptide fold change (50 µM): -0.173

More results

Target	probe-labelled cysteine peptide fold change (10 µM)	probe-labelled cysteine peptide fold change (50 µM)
NAA50_Q9GZZ1_79_LYIMTLGCLAPYR (UniProt Q9GZZ1)	-0.029	0.141
NCAPD2_Q15021_772_CSSVMLLGMMAR (UniProt Q15021)	0.0479	0.226
NANS_Q9NR45_19_WVGGQHPCFIIAEIGQNHQGDLDVAK (UniProt Q9NR45)	0.0873	-0.181
MYO9B_Q13459_1665_ALLCSVCK (UniProt Q13459)	-0.0508	0.0316
NCAPH_Q15003_255+267_TAASFDECSTAGVFLSTLHCQDYR (UniProt Q15003)	-0.0977	0.138
MYO1G_B0I1T2_97_DTCIVISGESGAGK (UniProt B0I1T2)	-0.00786	0.0953
NAP1L1_P55209_388_DQNPAECK (UniProt P55209)	0.124	0.514
MYO6_Q9UM54_610_NNDALHMSLESLICESR (UniProt Q9UM54)	0.0623	-0.198
MYO9B_Q13459_1857_CPDNSDPLTSMK (UniProt Q13459)	-0.0742	-0.0566
NCAPD3_P42695_1484_DTPACSR (UniProt P42695)	-0.0913	-0.372
NAIP_Q13075_124_FHPDCGFLLNK (UniProt Q13075)	-0.0445	-0.19
MYO6_Q9UM54_252_LCAGASEDIR (UniProt Q9UM54)	0.134	0.194
NCAPD3_P42695_361_ILLQHICAK (UniProt P42695)	-0.282	0.389
NCAPH2_Q6IBW4_184_MNTCVPHPR (UniProt Q6IBW4)	-0.277	0.0782
NAB2_Q15742_481_LSPCVPAKPPLAEFEEGLLDR (UniProt Q15742)	0.0997	-0.905
NADSYN1_Q6IA69_338_YHSPEEEISLGPACWLWDFLRR (UniProt Q6IA69)	0.151	0.263
NCAPD3_P42695_867_YIFTLGDIAQLCPAR (UniProt P42695)	0.0523	0.0129
NCAPH_Q15003_309_APLQQCAEDR (UniProt Q15003)	-0.323	0.0258
NAE1_Q13564_483_DDYVHEFCR (UniProt Q13564)	0.0669	0.223
NASP_P49321_84_YGETANECGEAFFFYGK (UniProt P49321)	0.193	0.457
NAPA_P54920_84_HDAATCFVDAGNAFK (UniProt P54920)	0.108	0.0794
